The target of assay [1] is T1, TMEM43 (human, expressed in the heterologous expression system) (human) (UniProt Q9BTV4).
T1 sequence: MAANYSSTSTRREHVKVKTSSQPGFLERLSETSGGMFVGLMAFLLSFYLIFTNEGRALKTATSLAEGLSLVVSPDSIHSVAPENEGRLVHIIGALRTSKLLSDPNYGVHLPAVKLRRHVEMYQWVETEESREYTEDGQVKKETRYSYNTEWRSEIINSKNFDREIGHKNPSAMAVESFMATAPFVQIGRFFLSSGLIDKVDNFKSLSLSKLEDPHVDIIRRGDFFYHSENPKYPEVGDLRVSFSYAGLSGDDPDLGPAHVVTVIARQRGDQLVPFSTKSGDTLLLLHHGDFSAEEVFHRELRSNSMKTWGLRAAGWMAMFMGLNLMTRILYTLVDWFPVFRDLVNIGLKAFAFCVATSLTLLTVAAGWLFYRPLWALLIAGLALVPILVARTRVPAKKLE
The assay is described as follows: co-IP.

Amino acid sequences for entries named in this document (tags omitted).
UniProt P17302: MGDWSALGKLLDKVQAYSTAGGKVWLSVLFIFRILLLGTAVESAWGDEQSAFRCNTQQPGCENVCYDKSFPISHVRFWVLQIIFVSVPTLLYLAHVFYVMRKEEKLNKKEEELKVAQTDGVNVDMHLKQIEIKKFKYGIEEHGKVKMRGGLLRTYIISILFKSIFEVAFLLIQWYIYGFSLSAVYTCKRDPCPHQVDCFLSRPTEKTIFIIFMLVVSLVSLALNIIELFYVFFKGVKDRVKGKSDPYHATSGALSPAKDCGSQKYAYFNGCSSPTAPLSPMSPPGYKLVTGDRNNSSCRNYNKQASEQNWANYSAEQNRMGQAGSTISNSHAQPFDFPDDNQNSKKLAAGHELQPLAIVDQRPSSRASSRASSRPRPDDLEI
UniProt P23242: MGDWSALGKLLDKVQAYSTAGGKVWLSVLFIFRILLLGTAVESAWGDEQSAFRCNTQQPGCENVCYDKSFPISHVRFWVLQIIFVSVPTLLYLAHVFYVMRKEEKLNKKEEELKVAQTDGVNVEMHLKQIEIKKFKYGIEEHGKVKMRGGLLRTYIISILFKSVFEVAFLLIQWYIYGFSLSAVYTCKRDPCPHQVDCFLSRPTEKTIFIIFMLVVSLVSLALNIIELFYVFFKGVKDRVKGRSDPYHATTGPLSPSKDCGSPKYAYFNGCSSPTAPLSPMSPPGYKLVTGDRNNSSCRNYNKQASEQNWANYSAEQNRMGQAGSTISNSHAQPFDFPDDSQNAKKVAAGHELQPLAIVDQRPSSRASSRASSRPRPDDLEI

For assay [2], the target named is T2, TMEM43 (endogenous, mouse brain) (mouse (endogenous in mouse brain)) (UniProt Q9DBS1).
T2 sequence: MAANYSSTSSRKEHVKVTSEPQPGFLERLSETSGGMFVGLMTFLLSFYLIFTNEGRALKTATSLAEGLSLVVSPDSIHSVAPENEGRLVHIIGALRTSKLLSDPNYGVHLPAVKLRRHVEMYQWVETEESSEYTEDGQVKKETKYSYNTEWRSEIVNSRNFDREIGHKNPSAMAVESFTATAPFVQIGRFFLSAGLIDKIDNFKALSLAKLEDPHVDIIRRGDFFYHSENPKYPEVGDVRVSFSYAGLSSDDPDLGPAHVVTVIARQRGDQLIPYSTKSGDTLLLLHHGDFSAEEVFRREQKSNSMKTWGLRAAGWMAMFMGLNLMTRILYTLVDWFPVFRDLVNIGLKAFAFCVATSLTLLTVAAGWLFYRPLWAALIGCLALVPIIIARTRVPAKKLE
The assay is described as follows: proximity ligation.

For assay [3], the target named is T2, TMEM43 (endogenous, mouse brain) (mouse (endogenous in mouse brain)). The assay is described as follows: co-IP.

No constants are given. Whether binding was seen depends on the method and setting. In cells and extracts the contact can be indirect. Some entries that bind do so weakly or less than the wild type.

For “Connexin 43 (expressed in the heterologous expression system) (from UniProt P17302 1-382)”, the binding result in assay [1] is “binds”.

Take “Connexin 43 (endogenous, mouse brain) (from UniProt P23242 1-382)”: the binding entry in assay [2] and in assay [3] was “binds” each time.
